experiment: Conjugation efficiency of the TN peptides (affinity purification of peptide specific antibodies); conditions: affinity column displaying multiple copies of the peptides

| Sequence | Conjugation efficiency of the TN peptides for the purified antibodies |
| --- | --- |
| LRRDLDAEDEAKKQVEKALEC [TN peptide 3] | 76.7% |
| LRRDLDAENEAKKQVEKALEC [TN peptide 2] | 100% |
| LRRDLDAEREAKKQVEMALEC [TN peptide 6] | 100% |
| LRRDLDAEREAKKQVERALEC [TN peptide 5] | 92% |
| LRRDLDAEREAKNQVEKALEC [TN peptide 4] | 96% |
| LRRDLDASDEAKKQVERALEC [TN peptide 16] | 100% |
| LRRDLDASNEAKKQVEMALEC [TN peptide 14] | 100% |
| LRRDLDASNEAKKQVERALEC [TN peptide 13] | 100% |
| LRRDLDASNEAKNQVEKALEC [TN peptide 12] | 100% |
| LRRDLDASREAKNQVEMALEC [TN peptide 19] | 55% |
| LRRDLDASREAKNQVERALEC [TN peptide 18] | 100% |
| LRRDLDAVDEAKKQVEKALEC [TN peptide 8] | 100% |
| LRRDLDAVNEAKKQVEKALEC [TN peptide 7] | 98% |
| LRRDLDAVREAKKQVEMALEC [TN peptide 11] | 100% |
| LRRDLDAVREAKKQVERALEC [TN peptide 10] | 98% |
| LRRDLDAVREAKNQVEKALEC [TN peptide 9] | 99% |
